For the experiment, the target named is flag-tagged E2F1 (UniProt Q01094). Nature of the experiment: co-IP; HEK293 cells transiently transfected with myc-tagged BZLF1 with or without flag-tagged E2F1; lysed in RIPA buffer with protease inhibitors; precleared; immunoprecipitated with 1 ug anti-flag mouse monoclonal antibody overnight at 4 C; Protein-A/G magnetic beads; washed three times with RIPA buffer; immunoblot.

Amino acid sequences for entries named in this document (tags omitted).
UniProt Q01094: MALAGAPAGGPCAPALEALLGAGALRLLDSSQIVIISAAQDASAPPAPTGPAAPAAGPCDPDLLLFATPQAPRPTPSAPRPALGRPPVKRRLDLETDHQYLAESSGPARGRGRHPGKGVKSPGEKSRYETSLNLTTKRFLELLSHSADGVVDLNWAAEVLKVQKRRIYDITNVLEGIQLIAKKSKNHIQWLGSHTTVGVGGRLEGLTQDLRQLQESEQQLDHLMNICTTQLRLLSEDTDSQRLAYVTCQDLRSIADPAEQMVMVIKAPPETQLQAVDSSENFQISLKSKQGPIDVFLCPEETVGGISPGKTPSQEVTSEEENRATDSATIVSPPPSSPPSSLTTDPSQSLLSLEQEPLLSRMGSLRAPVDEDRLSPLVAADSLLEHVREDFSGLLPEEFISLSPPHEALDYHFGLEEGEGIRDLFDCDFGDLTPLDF
UniProt P03206: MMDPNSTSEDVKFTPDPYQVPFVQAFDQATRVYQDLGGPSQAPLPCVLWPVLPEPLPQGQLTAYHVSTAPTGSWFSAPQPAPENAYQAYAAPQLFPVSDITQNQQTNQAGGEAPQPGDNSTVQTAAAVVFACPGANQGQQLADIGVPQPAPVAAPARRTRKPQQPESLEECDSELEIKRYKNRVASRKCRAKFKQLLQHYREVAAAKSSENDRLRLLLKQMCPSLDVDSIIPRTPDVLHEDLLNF

These are yes or no findings as the source states them, for the method shown. Binding seen in cells or lysates may run through a third protein.

As for “myc-tagged BZLF1 (from UniProt P03206 1-245)”, the binding entry is on record as “no binding”.

Values taken from article PMC12349880.
